The experiment has as its target T1, DR3 receptor on human TF-1 cells (human) (UniProt Q93038).
T1 sequence (looked up): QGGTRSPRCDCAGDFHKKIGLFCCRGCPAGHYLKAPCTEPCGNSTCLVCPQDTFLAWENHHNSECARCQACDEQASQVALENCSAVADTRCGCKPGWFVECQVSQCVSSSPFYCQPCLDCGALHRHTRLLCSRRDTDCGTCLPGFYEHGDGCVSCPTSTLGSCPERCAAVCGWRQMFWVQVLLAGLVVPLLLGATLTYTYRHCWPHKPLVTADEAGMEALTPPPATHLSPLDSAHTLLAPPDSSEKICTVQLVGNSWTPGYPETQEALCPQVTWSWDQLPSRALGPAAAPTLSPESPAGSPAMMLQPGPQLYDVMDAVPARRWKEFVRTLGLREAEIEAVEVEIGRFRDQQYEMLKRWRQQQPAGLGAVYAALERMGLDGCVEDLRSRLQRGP
The experiment is described as follows: TF-1 cell caspase activation assay.

This note sets out measurements from patent publication US20240336691A1 (PROMETHEUS BIOSCIENCES, published 2024).

Where a chain is given by its changes, count along the chain named. These are yes or no findings as the source states them, for the method shown. Some entries that bind do so weakly or less than the wild type.

B1: human recombinant TL1A protein (ligand, UniProt O95150 72-251, looked up)
chain: LKGQEFAPSHQQVYAPLRADGDKPRAHLTVVRQTPTQHFKNQFPALHWEHELGLAFTKNRMNYTNKFLLIPESGDYFIYSQVTFRGMTSECSEIRQAGRPNKPDSITVVITKVTDSYPEPTQLLMGTKSVCEVGSNWFQPIYLGAMFSLQEGDKLMVNVSDISLVDYTKEDKTFFGAFLL
As to B1, the binding entry is given as “binds”.

B2: cynomolgus monkey recombinant TL1A protein (ligand)
chain: B1 chain with F39L, I78V
In the case of B2, the binding result was “binds”.
